Experimental data reported in patent publication US12637440B2, “Amide derivative useful as diacylglycerol acyltransferase 2 inhibitor, and use thereof” (LG CHEM, LTD., priority 2019, dated 2026).
The structures given here were assigned with low confidence; some may be wrong.

The chains behind the UniProt entries cited, without tags or fusion partners.
UniProt Q96PD7, whole entry: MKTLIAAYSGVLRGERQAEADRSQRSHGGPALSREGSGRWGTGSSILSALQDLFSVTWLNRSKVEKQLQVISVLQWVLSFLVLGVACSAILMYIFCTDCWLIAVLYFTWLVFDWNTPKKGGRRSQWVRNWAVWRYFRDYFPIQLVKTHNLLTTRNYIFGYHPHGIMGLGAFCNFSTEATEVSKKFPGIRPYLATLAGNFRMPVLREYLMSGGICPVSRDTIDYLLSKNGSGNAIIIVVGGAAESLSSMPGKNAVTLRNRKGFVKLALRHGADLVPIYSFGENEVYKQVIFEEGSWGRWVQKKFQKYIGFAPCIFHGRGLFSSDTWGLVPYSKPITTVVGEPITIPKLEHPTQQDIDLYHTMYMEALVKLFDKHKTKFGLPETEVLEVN

Target: Recombinant human DGAT2 protein (Homo sapiens, UniProt Q96PD7)
Assay: Measurement of inhibitory effect against DGAT2 enzyme activity (SPA, Phospholipid FlashPlate, [14C]-TG production)
Conditions: concentration inhibiting [14C]-labeled triacyl glycerol (TG) production by 50%; 2 μg DGAT2-membrane protein from Sf-21 cells, 37° C.

Compound	IC50 [nM]
CCOc1ccccc1O[C@@H]1CCCN(c2nccc(NC(=O)CCC34CCC(C(=O)O)(CC3)CC4)n2)C1	1200
CCOc1ccccc1O[C@@H]1CCCN(c2cncc(NC(=O)C3CCN(c4ccc(C(C)(C)C(=O)O)cc4)CC3)n2)C1	1300
